Taken from: PubChem BioAssay AID1259308 (NCATS, 2017)
Here is a random part of about 59,000 reagents. In the full data, about 1,510 (2.6%) were called active. 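Calls use total luciferase alone and ignore viability, so some active siRNAs may act by altering cell number.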 Unmarked entries are inactive. The numbers tell different reagents against one gene apart. Further read-outs or replicates are left out here.

Screen: 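Genes whose loss raises luciferase production in HEK293 cells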 (primary screen)
Cells: human HEK293 embryonic kidney cells stably expressing firefly luciferase (HEK-CMV-Luc2-Hygro)
Reagent: single siRNA against human genes, 0.8 pmol siRNA per well
Duration: 72 h
Measurement: 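Luciferase light (ONE-Glo) measured on one replicate plate set and viability (CellTiter-Glo) on the other, scaled to a negative control siRNA, with robust z-scores and luciferase per cell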
Direction: total luciferase, z-score: higher = more reporter protein produced
Rule for the call: 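An siRNA counts as active if its total luciferase robust z-score exceeds 3; genes with two or more such siRNAs out of three were retested with fresh siRNAs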
Meaning of the calls: active = raised luciferase; inactive = no rise

total luciferase, z-score, by target and reagent
RPL17: #1 -1.57; #2 -2.77; #3 -2.96
SLC10A7: #1 -0.787; #2 -0.382; #3 2.16
CSPG5: #1 0.156; #2 3.22 (active); #3 2.87
STX10: #1 -1.64; #2 -0.564; #3 1.29
GATA1: #1 3.38 (active); #2 -1.23; #3 -0.117
PIGT: #1 0.588; #2 -0.473; #3 -0.376
ZNF324B: #1 2.09; #2 0.629; #3 2.02
LAMTOR4: #1 -0.556; #2 -1.11; #3 -1.78
YTHDF1: #1 -0.299; #2 1.15; #3 -0.234
TRAPPC8: #1 -0.869; #2 0.148; #3 0.745
BORCS6: #1 -0.525; #2 -0.0401; #3 0.438
DYNLT5: #1 1.33; #2 -0.536; #3 0.698
MAGEB6: #1 -0.0381; #2 0.519; #3 -0.000347
PRKRIP1: #1 1.71; #2 1.27; #3 -1.97

Entries listed so far whose target name starts with C or c:
total luciferase, z-score, by target and reagent
CSPG5: #1 0.156; #2 3.22 (active); #3 2.87

Additional entries:
total luciferase, z-score, by target and reagent
CELF2-AS2: #1 -1.02; #2 -1.43; #3 0.226
GPATCH1: #1 -1.32; #2 -0.765; #3 -0.485
DUSP23: #1 -0.233; #2 0.41; #3 0.414
RPL21P20: #1 -0.403; #2 -2.69; #3 -2.79
GYG2: #1 2.07; #2 -0.118; #3 0.304
TRPA1: #1 -0.0388; #2 -0.623; #3 -0.23
TSC22D1: #1 0.629; #2 -1.18; #3 0.481
KRT33A: #1 0.147; #2 1.32; #3 0.133
HAPLN3: #1 -3.31; #2 -0.606; #3 -0.123
RIC8B: #1 0.0896; #2 -0.473; #3 0.625
MAP2K5: #1 -0.0634; #2 0.777; #3 -1.02
